# PubChem BioAssay AID504774 | Drosophila RNAi Screening Center | 2011
# Assay: 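Fly genes whose loss alters survival after alkylation damage to DNA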 (primary screen)
# Cells: Drosophila Kc167 cells
# Reagents: long dsRNA against Drosophila genes, about 0.25 µg dsRNA per well
# Time to read-out: about 6 days: 3 days knock-down, then 3 days with or without MMS
# Conditions: methyl methanesulphonate 0.004% (w/v) for 3 days after knock-down
# Measured: 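ATP-dependent luminescence as a measure of live cells in MMS-exposed wells, quantile normalised within each plate, with replicate values also given as a mean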
# Direction: mean viability with MMS: higher = more surviving cells after MMS
# The screen tested about 23,000 reagents; shown is an unselected part of those that have a named target and a result. 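Values are quantile-normalised luminescence on an arbitrary scale; higher means more cells surviving MMS.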 Reagents against one gene are numbered here. Names joined by + are all predicted targets of the reagent. Further read-outs or replicates are left out here.
predicted target,reagent,mean viability with MMS
Su(Tpl) (Suppressor of Triplolethal),1,3.33e6
Gr98c (Gustatory receptor 98c),1,3.46e6
CG8586,1,3.51e6
CG8492,1,3.58e6
CG8492,2,3.47e6
CG32225,1,3.47e6
elav (embryonic lethal abnormal vision),1,3.52e6
Bap111 (Brahma associated protein 111kD),1,3.58e6
CG13055,1,3.70e6
CG10958,1,3.48e6
CG18682 (retired record),1,3.38e6
CG18682 (retired record),2,3.32e6

A portion from the list above:
predicted target,reagent,mean viability with MMS
elav (embryonic lethal abnormal vision),1,3.52e6
Bap111 (Brahma associated protein 111kD),1,3.58e6

The listing continues:
predicted target,reagent,mean viability with MMS
HP5 (Heterochromatin protein 5),1,3.62e6
Klp67A (Kinesin-like protein at 67A),1,3.39e6
CG17726,1,1.85e6
Ugt305A1 (UDP-glycosyltransferase family 305 member A1),1,3.44e6
Snx27 (Sorting nexin 27),1,3.65e6
Snx27 (Sorting nexin 27),2,3.38e6
Snx27 (Sorting nexin 27),3,3.47e6
Dlip1 (Dorsal interacting protein 1),1,3.52e6
Nup43 (Nucleoporin 43kD),1,3.52e6
Task7 (TWIK-related acid-sensitive K[+] channel 7),1,3.63e6
Taf10b + Taf10,1,3.23e6
CG32806,1,3.31e6
REPTOR-BP (REPTOR-binding partner),1,3.39e6
CG32706 + CG6999,1,3.58e6
LysP (Lysozyme P),1,3.55e6
Nrg (Neuroglian),1,3.53e6
Nrg (Neuroglian),2,3.65e6
